Test results: publication PMC12590881
These are yes or no findings as the source states them, for the method shown. In cells and extracts the contact can be indirect. These calls come from enrichment with a bait or labelling near it, and not all partners need be listed. For some of these results: No binding means not detected with the bait.

Protein sequences, listed by entry. Tags and fused reporters are not part of them.
UniProt O60260: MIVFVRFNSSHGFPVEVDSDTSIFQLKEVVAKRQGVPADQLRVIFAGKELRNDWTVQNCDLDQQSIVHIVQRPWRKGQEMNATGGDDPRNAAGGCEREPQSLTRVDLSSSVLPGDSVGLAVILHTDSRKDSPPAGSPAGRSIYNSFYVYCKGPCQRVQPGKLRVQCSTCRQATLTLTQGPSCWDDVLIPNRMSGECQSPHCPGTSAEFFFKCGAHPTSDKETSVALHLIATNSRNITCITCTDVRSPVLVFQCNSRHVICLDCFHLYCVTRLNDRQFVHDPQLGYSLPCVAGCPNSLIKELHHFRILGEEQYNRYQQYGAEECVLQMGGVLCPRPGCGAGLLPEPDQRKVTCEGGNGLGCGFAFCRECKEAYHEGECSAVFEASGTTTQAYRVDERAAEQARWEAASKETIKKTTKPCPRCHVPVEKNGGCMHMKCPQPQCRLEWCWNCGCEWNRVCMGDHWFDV

What was measured:
PHB2-APEX2-FLAG (human) [1] = biological target: PHB2-APEX2-FLAG (human) (UniProt Q99623); experiment: proximity labelling; APEX2 labelling in HeLa Parkin/PHB2-APEX2 cells treated with DMSO or OA (oligomycin 2.5 uM + antimycin A 250 nM) for 4 h; biotin-phenol 0.5 mM 30 min, H2O2 0.5 mM 1 min; lysis in RIPA; biotinylated proteins purified on streptavidin magnetic beads; Western blot
PHB2-APEX2-FLAG (human) [2] = biological target: PHB2-APEX2-FLAG (human) (UniProt Q99623); experiment: condition: only DMSO (basal conditions, without OA); proximity labelling; as a1, the DMSO-treated (basal) sample alone; streptavidin-purified biotinylated proteins, Western blot
PHB2-APEX2-FLAG (human) [3] = biological target: PHB2-APEX2-FLAG (human) (UniProt Q99623); experiment: proximity labelling; APEX2 labelling in HeLa Parkin/PHB2-APEX2 cells, DMSO against OA 4 h; streptavidin-purified biotinylated proteins; label-free proteomic analysis (mass spectrometry)

Row | binding (PHB2-APEX2-FLAG (human) [1]) | binding (PHB2-APEX2-FLAG (human) [2]) | binding (PHB2-APEX2-FLAG (human) [3]) | Substance
1 | binds |  |  | p62/SQSTM1 (from UniProt Q13501 1-440)
2 | binds | no binding | binds | Parkin (from UniProt O60260 1-465)
